In article PMC5221825 one finds binding data, which are given here for 4 molecules.

Sequences of proteins named here, by UniProt entry; tags and fusion partners are left off. A change or cut given only in a name is not applied to a line headed by its entry.
UniProt A6BLW4: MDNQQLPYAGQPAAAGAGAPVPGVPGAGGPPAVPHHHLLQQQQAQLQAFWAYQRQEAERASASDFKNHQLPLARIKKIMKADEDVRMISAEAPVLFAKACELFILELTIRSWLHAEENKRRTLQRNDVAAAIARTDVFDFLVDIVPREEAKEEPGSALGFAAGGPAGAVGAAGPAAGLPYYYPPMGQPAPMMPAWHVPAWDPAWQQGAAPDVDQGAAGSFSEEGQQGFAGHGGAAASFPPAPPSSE

In experiment [1] the target is T1, GRAIN YIELD, PLANT HEIGHT AND HEADING DATE 8 (Ghd8) (rice (Oryza sativa)) (UniProt Q0J7P4).
T1 sequence: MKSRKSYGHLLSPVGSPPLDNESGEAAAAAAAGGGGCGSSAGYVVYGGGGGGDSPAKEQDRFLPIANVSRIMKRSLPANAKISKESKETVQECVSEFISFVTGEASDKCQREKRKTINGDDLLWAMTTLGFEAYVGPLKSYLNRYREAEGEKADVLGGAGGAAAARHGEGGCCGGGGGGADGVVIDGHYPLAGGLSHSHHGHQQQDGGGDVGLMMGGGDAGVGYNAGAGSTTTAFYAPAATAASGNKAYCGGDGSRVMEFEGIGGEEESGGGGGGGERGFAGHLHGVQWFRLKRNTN
Nature of the experiment: two-hybrid; GAL4 AD (pGADT7) and BD (pGBKT7) fusions in yeast (AH109, Y187), diploids after mating; growth on YSD lacking Leu, Trp and His with increasing 3AT; 6 days at 30°C.

In experiment [2] the target is NF-YC1/Ghd8 heterodimer (rice (Oryza sativa)). Put plainly: yeast three-hybrid; BD-Ghd8 (pGBKT7), NF-YC subunit or nothing from pTFT1, AD fusion (pGADT7); growth on YSD lacking Leu, Trp, Ade and His with increasing 3AT; 6 days at 30°C.
The target in experiment [3] is NF-YC7/Ghd8 heterodimer (rice (Oryza sativa)). Described as above.

Results are given in words; binding and its absence hold for the method and conditions named. A result given as binding can be weak or reduced; the word gives no strength.

For the molecule NF-YC7 (rice (Oryza sativa)), the binding result in experiment [1] is recorded as “binds”. For NF-YC2 (from UniProt A6BLW4), the binding result in experiment [1] was “binds”. With NF-YC1 (rice (Oryza sativa)), in experiment [1], the binding entry was “binds”.

B1: PSEUDO RESPONSE REGULATOR 37 (PRR37) (protein, UniProt Q0D3B6 1-742)
chain: MMGTAHHNQTAGSALGVGVGDANDAVPGAGGGGYSDPDGGPISGVQRPPQVCWERFIQKKTIKVLLVDSDDSTRQVVSALLRHCMYEVIPAENGQQAWTYLEDMQNSIDLVLTEVVMPGVSGISLLSRIMNHNICKNIPVIMMSSNDAMGTVFKCLSKGAVDFLVKPIRKNELKNLWQHVWRRCHSSSGSGSESGIQTQKCAKSKSGDESNNNNGSNDDDDDDGVIMGLNARDGSDNGSGTQAQSSWTKRAVEIDSPQAMSPDQLADPPDSTCAQVIHLKSDICSNRWLPCTSNKNSKKQKETNDDFKGKDLEIGSPRNLNTAYQSSPNERSIKPTDRRNEYPLQNNSKEAAMENLEESSVRAADLIGSMAKNMDAQQAARAANAPNCSSKVPEGKDKNRDNIMPSLELSLKRSRSTGDGANAIQEEQRNVLRRSDLSAFTRYHTPVASNQGGTGFMGSCSLHDNSSEAMKTDSAYNMKSNSDAAPIKQGSNGSSNNNDMGSTTKNVVTKPSTNKERVMSPSAVKANGHTSAFHPAQHWTSPANTTGKEKTDEVANNAAKRAQPGEVQSNLVQHPRPILHYVHFDVSRENGGSGAPQCGSSNVFDPPVEGHAANYGVNGSNSGSNNGSNGQNGSTTAVNAERPNMEIANGTINKSGPGGGNGSGSGSGNDMYLKRFTQREHRVAAVIKFRQKRKERNFGKKVRYQSRKRLAEQRPRVRGQFVRQAVQDQQQQGGGREAAADR
B1: the binding entry in experiment [2] and in experiment [3] was “binds” each time.
